The source of these data is patent US10640547B2, “Immunotherapy against melanoma and other cancers” (IMMATICS BIOTECHNOLOGIES GMBH, priority 2016, dated 2020).

For this data set, the system named is HLA molecules of melanoma, other tumor and normal tissue samples. Put plainly: Identification and relative quantitation of tumor associated peptides presented on the cell surface (HLA immunoprecipitation, label-free LC-MS). The following applies: for Peptide Presentation (presentation score): over-presentation on tumors compared to a panel of normal tissues; for Additional Entities (additional tumor types on which the peptide was found) / relevant organs/diseases (additional tumor types on which the peptide was found): over-presented on more than 5% of the measured tumor samples, or presented on more than 5% with ratio of geometric means tumor vs normal tissues larger than 3. Details: species or system human; key to Peptide Presentation (presentation score): very highly over-presented on tumors compared to a panel of normal tissues (+++); highly over-presented on tumors compared to a panel of normal tissues (++); over-presented on tumors compared to a panel of normal tissues (+).

Turning to “170 (KLKEAVEAI; listed as Homo sapiens) [compound 170]”, the “Peptide Presentation (presentation score)” value (“Peptide Presentation” below) is listed as “++”; the “Additional Entities (additional tumor types on which the peptide was found)” value (“Additional Entities” below) was “HCC”; the “relevant organs/diseases (additional tumor types on which the peptide was found)” value (shortened to “relevant organs/diseases”) is listed as “RCC, CLL, NHL”.

As to “171 (KVSGVILSV; listed as Homo sapiens) [compound 171]”, the “Peptide Presentation” value is given as “++” and the “relevant organs/diseases” value is “NHL, AML, BRCA”.

Take “172 (FLPAGIVAV; listed as Homo sapiens) [compound 172]”: the “Peptide Presentation” value is recorded as “++” and the “relevant organs/diseases” value was “CLL, NHL, AML, Urinary bladder cancer, Uterine Cancer”.

For the substance “173 (ALDDIIYRA; listed as Homo sapiens) [compound 173]”, the “Peptide Presentation” value is given as “+”; the “Additional Entities” value was “HNSCC”; the “relevant organs/diseases” value was “CLL, NHL”.

For the substance “174 (TLLEGLTEL; listed as Homo sapiens) [compound 174]”, the “relevant organs/diseases” value was “OC, Uterine Cancer”.

In the case of “175 (VLDSVDVRL; listed as Homo sapiens) [compound 175]”, the “Peptide Presentation” value is “+” and the “relevant organs/diseases” value was “RCC, AML”.

Turning to “176 (TLYEQEIEV; listed as Homo sapiens) [compound 176]”, the “relevant organs/diseases” value is recorded as “RCC, Brain Cancer, PC, PrC, NHL”.

For “177 (ILWDTLLRL; listed as Homo sapiens) [compound 177]”, the “Peptide Presentation” value is recorded as “+” and the “relevant organs/diseases” value is “RCC, AML, Gallbladder Cancer, Bile Duct Cancer”.

For the substance “178 (FAYDGKDYIA; listed as Homo sapiens) [compound 178]”, the “Peptide Presentation” value is reported as “+++”; the “Additional Entities” value is recorded as “RCC, HNSCC”; the “relevant organs/diseases” value was “BRCA, Esophageal Cancer, OC”.

As for “179 (ALDDTVLQV; listed as Homo sapiens) [compound 179]”, the “Peptide Presentation” value was “+”; the “Additional Entities” value is “HNSCC”; the “relevant organs/diseases” value is on record as “SCLC, Esophageal Cancer”.

As to “180 (KLAEALYIA; listed as Homo sapiens) [compound 180]”, the “Peptide Presentation” value is “+”; the “Additional Entities” value is “HNSCC”; the “relevant organs/diseases” value is on record as “PrC, BRCA, Esophageal Cancer, Urinary bladder cancer”.

With “181 (GLIDLEANYL; listed as Homo sapiens) [compound 181]”, the “Peptide Presentation” value is given as “+” and the “relevant organs/diseases” value was “Brain Cancer, CLL, Uterine Cancer”.

On to “182 (SVALVIHNV; listed as Homo sapiens) [compound 182]”, for which the “Peptide Presentation” value is listed as “+”; the “Additional Entities” value is “RCC, GC, HCC”; the “relevant organs/diseases” value is on record as “NHL”.

As for “183 (FLDSLIYGA; listed as Homo sapiens) [compound 183]”, the “relevant organs/diseases” value is “AML, BRCA, Uterine Cancer”.

Regarding “184 (VLFSSPPVILL; listed as Homo sapiens) [compound 184]”, the “Peptide Presentation” value is “+”; the “Additional Entities” value was “HNSCC”; the “relevant organs/diseases” value is given as “NSCLC, Brain Cancer, PrC, CLL, NHL, Esophageal Cancer, Urinary bladder cancer”.

In the case of “186 (FLDHEMVFL; listed as Homo sapiens) [compound 186]”, the “Additional Entities” value is reported as “Uterine Cancer” and the “relevant organs/diseases” value is given as “CLL, NHL, AML, Urinary bladder cancer”.

Turning to “187 (SLPRPTPQA; listed as Homo sapiens) [compound 187]”, the “Peptide Presentation” value is given as “+” and the “relevant organs/diseases” value was “RCC”.

In the case of “188 (VVVDPIQSV; listed as Homo sapiens) [compound 188]”, the “Peptide Presentation” value is recorded as “+++”.

Turning to “189 (KALQFLEEV; listed as Homo sapiens) [compound 189]”, the “Peptide Presentation” value is “+++”; the “Additional Entities” value is “HCC”; the “relevant organs/diseases” value was “GC, CRC, BRCA, Uterine Cancer”.

Consider “190 (RLVSLITLL; listed as Homo sapiens) [compound 190]”, for which the “Peptide Presentation” value was “+++” and the “relevant organs/diseases” value is recorded as “CLL”.

Regarding “191 (YLDKMNNNI; listed as Homo sapiens) [compound 191]”, the “Peptide Presentation” value was “+++” and the “relevant organs/diseases” value is recorded as “NSCLC, RCC, Brain Cancer, PC, NHL, AML, BRCA, Esophageal Cancer, Urinary bladder cancer, Uterine Cancer, Gallbladder Cancer, Bile Duct Cancer”.

For the substance “192 (KLFTQIFGV; listed as Homo sapiens) [compound 192]”, the “Peptide Presentation” value is reported as “+++”, the “Additional Entities” value was “SCLC” and the “relevant organs/diseases” value was “HCC”.

Consider “193 (ALDEPTTNL; listed as Homo sapiens) [compound 193]”, for which the “Peptide Presentation” value is “++”; the “Additional Entities” value is reported as “CRC, CLL, NHL”; the “relevant organs/diseases” value is recorded as “AML, Urinary bladder cancer, Gallbladder Cancer, Bile Duct Cancer”.

As for “194 (TLDDIMAAV; listed as Homo sapiens) [compound 194]”, the “Peptide Presentation” value was “++” and the “relevant organs/diseases” value was “NSCLC, SCLC, RCC, Brain Cancer, CRC, CLL, NHL, AML, BRCA, Urinary bladder cancer, Uterine Cancer, Gallbladder Cancer, Bile Duct Cancer”.

Regarding “195 (IAAGIFNDL; listed as Homo sapiens) [compound 195]”, the “Peptide Presentation” value is “+++”; the “Additional Entities” value is “Gallbladder Cancer, Bile Duct Cancer”; the “relevant organs/diseases” value is given as “CLL, AML”.

As to “196 (ALEPIDITV; listed as Homo sapiens) [compound 196]”, the “Peptide Presentation” value is “+++” and the “relevant organs/diseases” value was “BRCA”.

Regarding “197 (ALDSGFNSV; listed as Homo sapiens) [compound 197]”, the “Peptide Presentation” value is on record as “+” and the “relevant organs/diseases” value is recorded as “CLL, NHL, Uterine Cancer”.

Regarding “198 (EVVDKINQV; listed as Homo sapiens) [compound 198]”, the “Peptide Presentation” value is listed as “+++” and the “relevant organs/diseases” value is “RCC”.

For the substance “199 (AIHTAILTL; listed as Homo sapiens) [compound 199]”, the “relevant organs/diseases” value is “CRC, BRCA”.

For “200 (LLEEINHFL; listed as Homo sapiens) [compound 200]”, the “Peptide Presentation” value is “+++”.

As for “201 (SLIDRTIKM; listed as Homo sapiens) [compound 201]”, the “Peptide Presentation” value is “+++”.

For the substance “202 (RVAFKINSV; listed as Homo sapiens) [compound 202]”, the “Peptide Presentation” value is “+++”.

“203 (FLNEDISKL; listed as Homo sapiens) [compound 203]”: the “Peptide Presentation” value was “+++”, the “Additional Entities” value is “HCC” and the “relevant organs/diseases” value is “RCC”.

“204 (RMDEEFTKI; listed as Homo sapiens) [compound 204]”: the “Peptide Presentation” value is on record as “+++” and the “Additional Entities” value is recorded as “AML”.

On to “205 (SLKSKVLSV; listed as Homo sapiens) [compound 205]”, for which the “Peptide Presentation” value was “+++” and the “Additional Entities” value was “HCC”.

With “206 (LLYEDIPDKV; listed as Homo sapiens) [compound 206]”, the “Peptide Presentation” value is “+”; the “Additional Entities” value is “RCC, HCC, HNSCC”; the “relevant organs/diseases” value is listed as “CLL, NHL, Esophageal Cancer, OC, Urinary bladder cancer”.

Take “207 (VQIGDIVTV; listed as Homo sapiens) [compound 207]”: the “Peptide Presentation” value is reported as “+”; the “Additional Entities” value was “HNSCC”; the “relevant organs/diseases” value is given as “GC, AML, BRCA”.

With “208 (YSDDIPHAL; listed as Homo sapiens) [compound 208]”, the “Peptide Presentation” value is listed as “++”; the “Additional Entities” value was “Gallbladder Cancer, Bile Duct Cancer”; the “relevant organs/diseases” value is given as “AML”.

For “209 (SILDGLIHL; listed as Homo sapiens) [compound 209]”, the “Peptide Presentation” value is reported as “++” and the “relevant organs/diseases” value is given as “CLL, NHL, AML”.

Consider “210 (LLPELRDWGV; listed as Homo sapiens) [compound 210]”, for which the “Additional Entities” value is given as “HCC, CLL” and the “relevant organs/diseases” value is recorded as “NHL”.
